Literature values in patent US20120010144A1, “Peg-albumin composition having at least one protected thiol region as a platform for medications” (priority 2009, published 2012).

Settings: human liver

| Compound | Concentration in liver tissue |
| --- | --- |
| Cc1c(C)c2c(c(C)c1O)CC[C@@](C)(CCC[C@H](C)CCC[C@H](C)CCCC(C)C)O2 [A-Tocopherol] | 50 (human) μmol/kg |
| O=C1O[C@H]([C@@H](O)CO)C(O)=C1O [Ascorbic acid] | 260 (human) μmol/kg |
| COc1c(O)c(C)c(C/C=C(\C)CC/C=C(\C)CC/C=C(\C)CC/C=C(\C)CC/C=C(\C)CC/C=C(\C)CC/C=C(\C)CC/C=C(\C)CC/C=C(\C)CCC=C(C)C)c(O)c1OC [Ubiquinol] | 200 (human) μmol/kg |
| Carotenes | 5 (human, total μmol/kg |
| N[C@@H](CCC(=O)N[C@@H](CS)C(=O)NCC(=O)O)C(=O)O [Glutathione] | 6,400 (human) μmol/kg |
| O=c1[nH]c(=O)c2[nH]c(=O)[nH]c2[nH]1 [Uric Acid] | 1,600 (human) μmol/kg |
